Binding data for one substance are collected here from patent US20120141538A1.

Chains of the proteins cited; added tags and fusions are not shown. Lines headed by an entry give the natural chain unless they say otherwise; changes in a name come on top.
UniProt P49238: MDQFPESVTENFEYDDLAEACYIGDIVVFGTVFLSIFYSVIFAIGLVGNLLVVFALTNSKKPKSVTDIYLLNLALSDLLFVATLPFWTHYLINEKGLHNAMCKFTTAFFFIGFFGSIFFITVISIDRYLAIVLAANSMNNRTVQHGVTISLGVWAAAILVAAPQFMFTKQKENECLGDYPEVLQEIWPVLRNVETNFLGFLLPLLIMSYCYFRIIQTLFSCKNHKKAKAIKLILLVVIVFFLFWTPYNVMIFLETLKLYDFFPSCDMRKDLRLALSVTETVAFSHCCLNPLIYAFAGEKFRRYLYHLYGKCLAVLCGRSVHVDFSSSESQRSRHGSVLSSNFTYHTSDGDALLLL
UniProt P78423: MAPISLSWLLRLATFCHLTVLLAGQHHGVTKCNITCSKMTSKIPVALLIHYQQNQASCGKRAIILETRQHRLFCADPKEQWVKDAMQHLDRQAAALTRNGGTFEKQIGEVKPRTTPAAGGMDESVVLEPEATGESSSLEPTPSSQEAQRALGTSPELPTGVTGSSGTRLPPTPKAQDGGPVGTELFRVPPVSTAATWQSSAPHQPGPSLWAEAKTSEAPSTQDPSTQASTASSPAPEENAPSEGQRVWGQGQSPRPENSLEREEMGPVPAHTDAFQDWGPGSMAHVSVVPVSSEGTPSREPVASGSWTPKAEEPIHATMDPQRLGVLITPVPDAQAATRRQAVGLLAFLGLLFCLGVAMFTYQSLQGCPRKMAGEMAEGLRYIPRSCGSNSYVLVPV

These are yes or no findings as the source states them, for the method shown. Some entries that bind do so weakly or less than the wild type.

The target of this test is human CX3CR1 receptor (human) (UniProt P49238). The test is described as follows: competitive radioligand binding on CHO-CX3CR1 cells.

Consider “CX3CL1 (native human soluble chemokine) (from UniProt P78423 25-100) (ligand)”, for which the binding entry is “binds”.
